Record: PubChem BioAssay AID1224827 (NIAID, 2016)
Here is one part, drawn at random, of about 3,800 reagents tested. In the full data, about 2,200 (57%) are marked active. 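Active means a strong reporter change in either direction; calls are per siRNA, not per gene; qiagen siRNAs gave weaker effects.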 The numbers tell different reagents against one gene apart.

Aim: 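Confirm genes whose knock-down changes LPS-driven TNF promoter activity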 (follow-up of hits)
System: RAW264.7 G9 mouse macrophage reporter clone
Reagent: single siRNA against mouse genes, 100 nM siRNA
Timing: siRNA for 2 days, then LPS about 16 h
Challenge: bacterial lipopolysaccharide (LPS), 10 ng/ml, cells fixed after overnight (about 16 h) stimulation
Measurement: 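Imaged nuclear TNF reporter intensity, background removed, scaled per plate and to non-targeting control wells, as z-scores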
Direction: TNF reporter z-score, mean and TNF reporter z-score: higher = stronger Tnf promoter reporter signal; gene median z, three same-vendor siRNAs: higher = stronger Tnf reporter signal for the gene
Call rule: 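Active siRNA: replicate-mean z-score of 2 or more, or -2 or less; no calls for control wells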

| target gene | siRNA no. | TNF reporter z-score, mean | gene median z, three same-vendor siRNAs | TNF reporter z-score, repeat 1 | TNF reporter z-score, repeat 2 | call |
| --- | --- | --- | --- | --- | --- | --- |
| Trim9 (tripartite motif-containing 9) | 1 | 6.84 | -3.25 | 5.03 | 8.64 | active |
| Trim9 (tripartite motif-containing 9) | 2 | -3.25 | -3.25 | -3.98 | -2.53 | active |
| Trim9 (tripartite motif-containing 9) | 3 | -5.6 | -3.25 | -5.13 | -6.08 | active |
| Trim9 (tripartite motif-containing 9) | 4 | 1.45 | -1.51 | 2.69 | 0.215 | inactive |
| Trim9 (tripartite motif-containing 9) | 5 | -1.51 | -1.51 | -1.83 | -1.19 | inactive |
| Trim9 (tripartite motif-containing 9) | 6 | -2.8 | -1.51 | -2.05 | -3.55 | active |
| Or2n1d (olfactory receptor family 2 subfamily N member 1D) | 1 | -1.22 | -5.03 | -4.91 | 2.48 | inactive |
| Or2n1d (olfactory receptor family 2 subfamily N member 1D) | 2 | -5.4 | -5.03 | -4.62 | -6.19 | active |
| Or2n1d (olfactory receptor family 2 subfamily N member 1D) | 3 | -5.36 | -5.03 | -5.14 | -5.58 | active |
| Or2n1d (olfactory receptor family 2 subfamily N member 1D) | 4 | 0.232 | 0.232 | 0.821 | -0.357 | inactive |
| Or2n1d (olfactory receptor family 2 subfamily N member 1D) | 5 | 0.368 | 0.232 | 1.8 | -1.07 | inactive |
| Or2n1d (olfactory receptor family 2 subfamily N member 1D) | 6 | 0.229 | 0.232 | 2.06 | -1.6 | inactive |
| Gnpnat1 (glucosamine-phosphate N-acetyltransferase 1) | 1 | 1.26 | -2.03 | -0.651 | 3.18 | inactive |
| Gnpnat1 (glucosamine-phosphate N-acetyltransferase 1) | 2 | -2.21 | -2.03 | -2.76 | -1.66 | active |
| Gnpnat1 (glucosamine-phosphate N-acetyltransferase 1) | 3 | -3.08 | -2.03 | -3.76 | -2.4 | active |
| Gnpnat1 (glucosamine-phosphate N-acetyltransferase 1) | 4 | 2.91 | 0.377 | 4.64 | 1.19 | active |
| Gnpnat1 (glucosamine-phosphate N-acetyltransferase 1) | 5 | 1.91 | 0.377 | 4.25 | -0.431 | inactive |
| Gnpnat1 (glucosamine-phosphate N-acetyltransferase 1) | 6 | -3.72 | 0.377 | -4.79 | -2.64 | active |
| Hexb (hexosaminidase B) | 1 | 5.36 | 0.116 | 2.57 | 8.14 | active |
| Hexb (hexosaminidase B) | 2 | 0.116 | 0.116 | -1.65 | 1.88 | inactive |
| Hexb (hexosaminidase B) | 3 | -2.69 | 0.116 | -2.29 | -3.09 | active |
| Hexb (hexosaminidase B) | 4 | 2.24 | 1.17 | 3.93 | 0.56 | active |
| Hexb (hexosaminidase B) | 5 | 0.877 | 1.17 | 1.78 | -0.0263 | inactive |
| Hexb (hexosaminidase B) | 6 | 0.739 | 1.17 | 2.13 | -0.648 | inactive |

Copied from above (2 entries):
| target gene | siRNA no. | TNF reporter z-score, mean | gene median z, three same-vendor siRNAs | TNF reporter z-score, repeat 1 | TNF reporter z-score, repeat 2 | call |
| --- | --- | --- | --- | --- | --- | --- |
| Or2n1d (olfactory receptor family 2 subfamily N member 1D) | 1 | -1.22 | -5.03 | -4.91 | 2.48 | inactive |
| Or2n1d (olfactory receptor family 2 subfamily N member 1D) | 2 | -5.4 | -5.03 | -4.62 | -6.19 | active |
